Results are given in words; binding and its absence hold for the method and conditions named. Binding seen in cells or lysates may run through a third protein. Here binding means that the protein was enriched with, or labelled near, the bait; the list need not be complete.

Experimental findings from publication PMC10081216 are described below.

The assay concerns the target BirA*-DUX (full-length mouse DUX with BirA* fused to the N-terminus), in mESCs (mouse). Briefly: proximity labelling; BioID: BirA*-DUX (full-length) in mESCs against unfused BirA* alone in 2C-like mESCs; clonal stable lines, 12hr with 0.25 μg/mL doxycycline and 5μM biotin (methods: 0.5 μM biotin, 18 hours); streptavidin pulldown, LC MS/MS; DESeq2 and SAINTexpress.

B1: ZSCAN4D, endogenous in 2C-like mESCs (protein, UniProt A7KBS4 1-506)
chain: MASQQAPAKDLQTNNLEFTPSHSSGVQWVEDISNSPSAQLNFSPSNNGCWATQELQSLWKMFNSWLQPEKQTKEQMISQLVLEQFLLIGHCKDKYALTEKWKASGSDMRRFMESLTDECLKPPVMVHVSMQGQEALFSENMPLKEVIKLLKQQQSATRPTPDNEQMPVDTTQDRLLATGQENSENECNNSCNATEANVGESCSGNEMDSLLIIQKEQYPEHEEGNVVFQFPLDARRASQGNSSHHVDFRSAPTPADVPMEEQPKDLSRENISEDKNNCYNTSRNAATQVYRSDNIPRKKTDSLSINKRIYHSEPEEGDIPYGVPQDSTRASQGTSTCLQESLGECFSEKDPRELPGLESRQEEPISDPVFLGKDHEANLPCESHQKRFRRDAKLFKCEECSRMFKHARSLSSHQRTHLNKKSELLCVTCQKMFKRVSDRRTHEIIHMPEKPFKCSTCEKSFSHKTNLKSHEMIHTGEMPYVCSLCSRRFRQSSTYHRHLRNYHRSD
Turning to B1, the binding result was “binds”.
